Data as given in PubChem BioAssay AID652259 (Drosophila RNAi Screening Center, 2013).
In all, the deposit lists about 22,000 reagents; this is a random part of those with a known target gene and a result. In the full data, 233 (1.1%) are marked active. 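Light values are raw, unnormalised plate reads; the ratio scores behind the reporter calls were not deposited.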 Names joined by + are all predicted targets of the reagent. The record does not give: the amount of reagent, the time to read-out, the dose of the treatment.

- Test: 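Identify new Wingless signalling regulators in fly cells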 (primary screen)
- Cells: Drosophila clone 8 imaginal disc epithelial cells
- Reagents: long dsRNA against Drosophila genes
- Treatment: pathway stimulated by co-transfected Wingless expression plasmid
- Measured: 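Firefly luciferase from a tcf-site Wingless reporter, measured alongside co-transfected Renilla luciferase that tracks transfection; pathway stimulated by a Wingless plasmid; the firefly-to-Renilla ratio is not deposited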
- Scale: firefly reporter light: higher = more Wg reporter light, before normalisation; Renilla control light: higher = more transfected or surviving cells
- Hit rule: 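Strong candidates differ from their plate mean by at least two out of four per-plate statistical tests; weak candidates meet just one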
- Meaning of the calls: active = candidate regulator (raises or lowers reporter); inactive = not a candidate

target gene | dsRNA | firefly reporter light, replicate 1 | firefly reporter light, replicate 2 | Renilla control light, replicate 1 | Renilla control light, replicate 2 | call
Snx1 | DRSC00531 | 1744 | 5525 | 851 | 2198 | inactive
CG13024 | DRSC09904 | 7952 | – | 3376 | – | inactive
Taz | DRSC07704 | 8267 | – | 3772 | – | inactive
Taz | DRSC22625 | 4.51e5 | 4.78e5 | 1.82e5 | 1.88e5 | inactive
CG17075 | DRSC00483 | 8900 | – | 3285 | – | inactive
Cog7 | DRSC16331 | 12184 | – | 4134 | – | inactive
CG6729 | DRSC02984 | 20348 | – | 9420 | – | inactive
CG6729 | DRSC22793 | 4.49e5 | 5.70e5 | 1.94e5 | 2.26e5 | inactive
MESK2 | DRSC04258 | 2233 | 6496 | 1185 | 2439 | inactive
CG30010 | DRSC05193 | 14795 | – | 7316 | – | inactive
Nnf1a | DRSC06394 | 3867 | – | 2578 | – | inactive
CG43327 + CG43328 | DRSC05640 | 17888 | – | 12869 | – | inactive
CG5003 | DRSC15694 | 3223 | 4739 | 1325 | 1952 | inactive
CG43089 | DRSC08060 | 1845 | – | 1024 | – | inactive
Mul1 | DRSC08174 | 6048 | – | 3131 | – | inactive
CG7173 | DRSC11812 | 6067 | – | 802 | – | inactive
La | DRSC03358 | 4281 | 7776 | 428 | 2946 | inactive
Cyt-c-d | DRSC03309 | 1865 | 10749 | 906 | 4321 | inactive
TBC1d7 | DRSC15985 | 14636 | – | 15248 | – | inactive
Top3alpha | DRSC03460 | 1452 | 7516 | 505 | 2561 | inactive
Kyat | DRSC16147 | 12156 | – | 2836 | – | inactive
lncRNA:CR32730 | DRSC22957 | 8.92e5 | 9.31e5 | 3.58e5 | 96529 | inactive
WRNexo | DRSC16278 | 4786 | 6370 | 1591 | 2859 | inactive
Cyp6t3 | DRSC07388 | 5559 | – | 2076 | – | inactive
CG14300 | DRSC14779 | 20253 | – | 3683 | – | inactive
Cpr | DRSC03293 | 8536 | – | 4135 | – | inactive
CG8630 | DRSC16441 | 12768 | – | 2152 | – | inactive
osi | DRSC02931 | 1808 | 9569 | 1168 | 4843 | inactive
CG30323 | DRSC07656 | 4689 | – | 1572 | – | inactive
CG30268 | DRSC21983 | 5.42e5 | 5.60e5 | 2.29e5 | 2.90e5 | inactive
Fign | DRSC00592 | 13161 | – | 5223 | – | inactive
CG15544 | DRSC15082 | 8176 | – | 3186 | – | inactive
CG43393 | DRSC03917 | 16048 | – | 8426 | – | inactive
GluRIIA | DRSC03334 | 2421 | 6976 | 923 | 2837 | inactive
cerv | DRSC19681 | 15107 | – | 7859 | – | inactive
Sec31 | DRSC07131 | 6026 | – | 2068 | – | inactive
CG34435 | DRSC18086 | 14839 | – | 6844 | – | inactive
sotv + CG10731 | DRSC05930 | 6435 | – | 2374 | – | inactive
sotv + CG10731 | DRSC05997 | 3157 | – | 1681 | – | inactive
CG16787 | DRSC04282 | 3584 | 7096 | 823 | 2624 | inactive
Spn47C | DRSC07030 | 8481 | – | 2843 | – | inactive
CG16779 | DRSC15153 | 10947 | – | 2023 | – | inactive
vih | DRSC09778 | 8074 | – | 2043 | – | inactive
CG12128 | DRSC06104 | 10477 | – | 3414 | – | inactive
Art9 | DRSC16584 | 20400 | – | 4889 | – | inactive
Br140 | DRSC06755 | 9618 | – | 1964 | – | inactive
CG15719 | DRSC19685 | 24833 | – | 11522 | – | inactive
mRpL21 | DRSC11100 | 9992 | – | 3787 | – | inactive
CG14383 | DRSC14841 | 19192 | – | 2917 | – | inactive
